Measured values from publication PMC8513606.
Results are given in words; binding and its absence hold for the method and conditions named. Binding seen in cells or lysates may run through a third protein. These calls come from enrichment with a bait or labelling near it, and not all partners need be listed.

Amino acid sequences for entries named in this document (tags omitted). A change or cut given only in a name is not applied to a line headed by its entry.
UniProt Q61483: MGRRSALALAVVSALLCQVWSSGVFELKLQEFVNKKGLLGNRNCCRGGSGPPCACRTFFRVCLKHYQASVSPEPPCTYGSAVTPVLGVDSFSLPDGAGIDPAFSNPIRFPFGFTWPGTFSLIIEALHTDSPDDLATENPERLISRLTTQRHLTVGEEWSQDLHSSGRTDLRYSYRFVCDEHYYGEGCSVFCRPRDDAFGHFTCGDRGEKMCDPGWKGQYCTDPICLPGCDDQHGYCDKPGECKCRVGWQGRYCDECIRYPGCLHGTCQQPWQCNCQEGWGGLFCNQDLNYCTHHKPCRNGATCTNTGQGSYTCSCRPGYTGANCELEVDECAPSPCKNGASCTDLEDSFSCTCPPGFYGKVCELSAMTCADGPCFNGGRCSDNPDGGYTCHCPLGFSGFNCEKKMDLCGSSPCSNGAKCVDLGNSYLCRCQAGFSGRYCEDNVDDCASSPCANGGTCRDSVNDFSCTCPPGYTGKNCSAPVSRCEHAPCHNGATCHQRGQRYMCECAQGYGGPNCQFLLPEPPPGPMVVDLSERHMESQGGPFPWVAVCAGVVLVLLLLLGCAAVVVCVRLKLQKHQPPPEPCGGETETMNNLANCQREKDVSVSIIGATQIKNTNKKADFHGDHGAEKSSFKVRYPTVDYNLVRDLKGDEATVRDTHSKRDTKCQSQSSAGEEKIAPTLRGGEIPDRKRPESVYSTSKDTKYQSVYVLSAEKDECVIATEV
UniProt P28482: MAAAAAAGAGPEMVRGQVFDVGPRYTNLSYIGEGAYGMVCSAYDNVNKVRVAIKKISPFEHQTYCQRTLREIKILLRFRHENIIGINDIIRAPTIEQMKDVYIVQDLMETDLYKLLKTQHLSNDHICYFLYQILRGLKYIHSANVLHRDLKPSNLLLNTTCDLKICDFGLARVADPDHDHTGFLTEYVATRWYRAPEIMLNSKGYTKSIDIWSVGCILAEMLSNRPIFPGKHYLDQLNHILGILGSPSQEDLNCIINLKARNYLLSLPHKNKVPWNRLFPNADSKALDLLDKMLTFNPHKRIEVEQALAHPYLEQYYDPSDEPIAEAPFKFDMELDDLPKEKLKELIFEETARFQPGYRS
UniProt P27361: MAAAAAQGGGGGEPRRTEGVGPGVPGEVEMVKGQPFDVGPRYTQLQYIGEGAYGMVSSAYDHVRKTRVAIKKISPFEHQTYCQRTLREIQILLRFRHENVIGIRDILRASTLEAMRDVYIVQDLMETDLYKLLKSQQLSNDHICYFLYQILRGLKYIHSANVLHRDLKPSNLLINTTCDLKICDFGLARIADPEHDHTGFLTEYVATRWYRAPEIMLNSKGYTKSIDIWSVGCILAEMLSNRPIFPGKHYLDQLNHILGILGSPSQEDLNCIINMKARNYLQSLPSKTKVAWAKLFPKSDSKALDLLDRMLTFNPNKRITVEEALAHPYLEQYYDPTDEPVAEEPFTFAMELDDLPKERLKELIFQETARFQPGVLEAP
UniProt P62993: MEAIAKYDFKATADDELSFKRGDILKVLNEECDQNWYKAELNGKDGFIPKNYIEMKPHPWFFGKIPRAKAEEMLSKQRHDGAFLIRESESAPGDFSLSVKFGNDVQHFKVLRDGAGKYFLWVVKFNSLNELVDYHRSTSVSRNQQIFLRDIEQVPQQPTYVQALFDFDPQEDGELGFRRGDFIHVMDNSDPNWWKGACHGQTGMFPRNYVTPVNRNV
UniProt Q96QZ7: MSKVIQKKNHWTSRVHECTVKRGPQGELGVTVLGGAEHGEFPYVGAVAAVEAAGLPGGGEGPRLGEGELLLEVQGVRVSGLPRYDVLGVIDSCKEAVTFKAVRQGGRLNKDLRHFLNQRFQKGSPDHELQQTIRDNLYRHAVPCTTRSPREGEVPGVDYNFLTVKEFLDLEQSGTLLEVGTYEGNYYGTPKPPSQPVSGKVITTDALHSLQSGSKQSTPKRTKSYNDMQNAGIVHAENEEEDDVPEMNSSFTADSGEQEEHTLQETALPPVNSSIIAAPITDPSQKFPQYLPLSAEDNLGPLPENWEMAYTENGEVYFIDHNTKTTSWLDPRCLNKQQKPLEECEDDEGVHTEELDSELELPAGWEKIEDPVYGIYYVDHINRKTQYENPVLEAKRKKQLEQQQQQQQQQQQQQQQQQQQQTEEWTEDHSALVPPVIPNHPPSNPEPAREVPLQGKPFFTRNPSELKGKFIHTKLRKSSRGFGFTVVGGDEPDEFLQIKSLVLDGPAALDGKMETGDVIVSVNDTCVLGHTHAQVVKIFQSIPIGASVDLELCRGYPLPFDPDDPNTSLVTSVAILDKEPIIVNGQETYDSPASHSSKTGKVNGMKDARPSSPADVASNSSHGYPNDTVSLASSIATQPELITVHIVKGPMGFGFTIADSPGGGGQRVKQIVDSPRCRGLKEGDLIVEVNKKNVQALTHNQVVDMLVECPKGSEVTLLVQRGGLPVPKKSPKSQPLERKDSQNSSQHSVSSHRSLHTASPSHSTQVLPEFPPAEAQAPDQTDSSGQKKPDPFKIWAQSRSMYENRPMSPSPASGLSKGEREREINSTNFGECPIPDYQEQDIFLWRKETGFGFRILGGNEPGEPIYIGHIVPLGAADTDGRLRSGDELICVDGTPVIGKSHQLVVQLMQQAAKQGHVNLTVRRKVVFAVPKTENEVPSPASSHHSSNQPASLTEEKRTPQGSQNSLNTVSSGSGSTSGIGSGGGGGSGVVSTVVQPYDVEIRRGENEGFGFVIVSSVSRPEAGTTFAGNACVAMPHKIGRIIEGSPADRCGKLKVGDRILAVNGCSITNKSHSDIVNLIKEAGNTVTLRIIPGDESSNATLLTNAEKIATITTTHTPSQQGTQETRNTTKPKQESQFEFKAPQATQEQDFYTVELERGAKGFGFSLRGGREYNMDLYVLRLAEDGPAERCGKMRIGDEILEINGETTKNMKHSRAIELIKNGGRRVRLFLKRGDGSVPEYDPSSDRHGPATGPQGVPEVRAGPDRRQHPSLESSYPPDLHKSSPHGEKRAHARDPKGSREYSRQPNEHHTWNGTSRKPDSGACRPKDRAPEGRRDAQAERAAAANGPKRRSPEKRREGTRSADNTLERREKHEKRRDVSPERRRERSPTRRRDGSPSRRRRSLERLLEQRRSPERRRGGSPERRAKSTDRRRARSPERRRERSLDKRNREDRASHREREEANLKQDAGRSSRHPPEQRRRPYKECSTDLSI
UniProt Q16539: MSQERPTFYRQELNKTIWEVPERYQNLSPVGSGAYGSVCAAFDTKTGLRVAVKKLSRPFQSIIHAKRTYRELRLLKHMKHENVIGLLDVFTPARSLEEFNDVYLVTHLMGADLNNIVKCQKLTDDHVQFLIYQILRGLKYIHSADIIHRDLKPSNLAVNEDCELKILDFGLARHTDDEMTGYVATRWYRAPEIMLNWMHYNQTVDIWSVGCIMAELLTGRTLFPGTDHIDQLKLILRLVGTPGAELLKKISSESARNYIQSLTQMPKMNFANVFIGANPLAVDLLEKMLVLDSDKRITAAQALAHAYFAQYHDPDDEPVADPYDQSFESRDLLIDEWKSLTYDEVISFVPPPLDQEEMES

B1: membrane-associated guanylate kinase, WW and PDZ domain-containing protein 3 (protein, UniProt Q5TCQ9 1-1481)
chain: MSKTLKKKKHWLSKVQECAVSWAGPPGDFGAEIRGGAERGEFPYLGRLREEPGGGTCCVVSGKAPSPGDVLLEVNGTPVSGLTNRDTLAVIRHFREPIRLKTVKPGKVINKDLRHYLSLQFQKGSIDHKLQQVIRDNLYLRTIPCTTRAPRDGEVPGVDYNFISVEQFKALEESGALLESGTYDGNFYGTPKPPAEPSPFQPDPVDQVLFDNEFDAESQRKRTTSVSKMERMDSSLPEEEEDEDKEAINGSGNAENRERHSESSDWMKTVPSYNQTNSSMDFRNYMMRDETLEPLPKNWEMAYTDTGMIYFIDHNTKTTTWLDPRLCKKAKAPEDCEDGELPYGWEKIEDPQYGTYYVDHLNQKTQFENPVEEAKRKKQLGQVEIGSSKPDMEKSHFTRDPSQLKGVLVRASLKKSTMGFGFTIIGGDRPDEFLQVKNVLKDGPAAQDGKIAPGDVIVDINGNCVLGHTHADVVQMFQLVPVNQYVNLTLCRGYPLPDDSEDPVVDIVAATPVINGQSLTKGETCMNPQDFKPGAMVLEQNGKSGHTLTGDGLNGPSDASEQRVSMASSGSSQPELVTIPLIKGPKGFGFAIADSPTGQKVKMILDSQWCQGLQKGDIIKEIYHQNVQNLTHLQVVEVLKQFPVGADVPLLILRGGPPSPTKTAKMKTDKKENAGSLEAINEPIPQPMPFPPSIIRSGSPKLDPSEVYLKSKTLYEDKPPNTKDLDVFLRKQESGFGFRVLGGDGPDQSIYIGAIIPLGAAEKDGRLRAADELMCIDGIPVKGKSHKQVLDLMTTAARNGHVLLTVRRKIFYGEKQPEDDSSQAFISTQNGSPRLNRAEVPARPAPQEPYDVVLQRKENEGFGFVILTSKNKPPPGVIPHKIGRVIEGSPADRCGKLKVGDHISAVNGQSIVELSHDNIVQLIKDAGVTVTLTVIAEEEHHGPPSGTNSARQSPALQHRPMGQSQANHIPGDRSALEGEIGKDVSTSYRHSWSDHKHLAQPDTAVISVVGSRHNQNLGCYPVELERGPRGFGFSLRGGKEYNMGLFILRLAEDGPAIKDGRIHVGDQIVEINGEPTQGITHTRAIELIQAGGNKVLLLLRPGTGLIPDHGDWDINNPSSSNVIYDEQSPLPPSSHFASIFEESHVPVIEESLRVQICEKAEELKDIVPEKKSTLNENQPEIKHQSLLQKNVSKRDPPSSHGHSNKKNLLKVENGVTRRGRSVSPKKPASQHSEEHLDKIPSPLKNNPKRRPRDQSLSPSKGENKSCQVSTRAGSGQDQCRKSRGRSASPKKQQKIEGSKAPSNAEAKLLEGKSRRIAGYTGSNAEQIPDGKEKSDVIRKDAKQNQLEKSRTRSPEKKIKRMVEKSLPSKMTNKTTSKEVSENEKGKKVTTGETSSSNDKIGENVQLSEKRLKQEPEEKVVSNKTEDHKGKELEAADKNKETGRFKPESSSPVKKTLITPGPWKVPSGNKVTGTIGMAEKRQ

The molecules below were run against 3×Flag-tagged mouse Delta like 1 intracellular domain (mouse) (UniProt Q61483) (assay: affinity purification with mass spectrometry; HEK293T cells transfected with 3×Flag-tagged mouse D1ICD or empty vector; IP with anti-Flag M2 resin, elution with 3×Flag peptide, SDS-PAGE, LC-MS/MS; two independent experiments, proteins found in a control IP omitted).

Molecule	binding
extracellular signal-regulated-kinase 2 (HEK293T) (from UniProt P28482 1-360)	binds
extracellular signal-regulated-kinase (ERK) 1 (HEK293T) (from UniProt P27361 1-379)	binds
growth factor receptor-bound protein 2 (from UniProt P62993 1-217)	binds
membrane-associated guanylate kinase, WW and PDZ domain-containing protein (MAGI) 1 (from UniProt Q96QZ7 1-1491)	binds
mitogen-activated protein kinase 14 (from UniProt Q16539 1-360)	binds
B1	binds
